Data: PMC7020312 (CPT: Pharmacometrics & Systems Pharmacology, 2020)

Experiment: Caco-2 apical-to-basolateral apparent permeability
Assay type: in vitro ADME
Conditions: human

Papp A→B (Caco-2, pH 6.5): 0.121 ×10⁻⁶ cm/s
Papp A→B (Caco-2, pH 7.4): 0.146 ×10⁻⁶ cm/s
SMILES: CC(C)NCC(O)COc1ccc(CC(N)=O)cc1 (centres unmarked) [atenolol]
